Measured values from the supplement of paper PMC6411743.
± gives the standard deviation of the averaged measurements. This is a selection; strong and weak results do not stand in their true shares.

By UniProt entry, the sequences of proteins in these tests, tags left out. Where a name states a change or a piece, a line headed by the entry shows the natural chain unless it says otherwise.
UniProt Q15126: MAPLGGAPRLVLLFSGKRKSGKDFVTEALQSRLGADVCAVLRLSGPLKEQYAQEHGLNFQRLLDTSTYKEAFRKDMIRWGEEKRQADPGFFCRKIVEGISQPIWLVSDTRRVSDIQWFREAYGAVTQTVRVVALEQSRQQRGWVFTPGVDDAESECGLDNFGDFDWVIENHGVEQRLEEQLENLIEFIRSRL
UniProt Q49B96: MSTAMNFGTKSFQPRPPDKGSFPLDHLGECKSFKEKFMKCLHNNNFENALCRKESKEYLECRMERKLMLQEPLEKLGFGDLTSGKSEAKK
UniProt Q2T9J0: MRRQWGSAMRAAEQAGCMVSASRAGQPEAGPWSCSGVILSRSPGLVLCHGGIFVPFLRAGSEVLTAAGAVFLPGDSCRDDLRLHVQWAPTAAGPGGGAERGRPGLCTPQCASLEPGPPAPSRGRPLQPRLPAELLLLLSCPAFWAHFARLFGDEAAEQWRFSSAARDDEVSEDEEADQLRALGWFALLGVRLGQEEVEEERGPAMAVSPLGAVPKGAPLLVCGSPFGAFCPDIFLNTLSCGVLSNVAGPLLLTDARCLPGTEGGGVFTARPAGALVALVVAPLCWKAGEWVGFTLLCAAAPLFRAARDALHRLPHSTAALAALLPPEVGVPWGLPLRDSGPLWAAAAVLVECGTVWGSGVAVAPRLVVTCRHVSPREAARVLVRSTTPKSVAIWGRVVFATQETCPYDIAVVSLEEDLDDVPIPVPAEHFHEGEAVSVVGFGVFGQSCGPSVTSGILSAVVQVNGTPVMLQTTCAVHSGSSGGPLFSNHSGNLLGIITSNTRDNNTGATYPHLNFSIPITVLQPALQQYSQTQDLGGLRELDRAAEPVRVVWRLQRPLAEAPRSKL
UniProt Q15738: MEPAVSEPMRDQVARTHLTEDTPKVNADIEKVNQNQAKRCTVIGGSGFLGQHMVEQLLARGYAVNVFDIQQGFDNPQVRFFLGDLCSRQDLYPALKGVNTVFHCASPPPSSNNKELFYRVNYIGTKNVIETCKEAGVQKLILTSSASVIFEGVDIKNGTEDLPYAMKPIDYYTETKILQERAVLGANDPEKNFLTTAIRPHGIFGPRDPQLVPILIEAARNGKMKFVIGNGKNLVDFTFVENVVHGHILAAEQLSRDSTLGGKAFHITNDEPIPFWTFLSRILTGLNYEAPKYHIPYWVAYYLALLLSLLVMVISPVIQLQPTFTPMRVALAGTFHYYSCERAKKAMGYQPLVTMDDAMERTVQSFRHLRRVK
UniProt Q16659, whole entry: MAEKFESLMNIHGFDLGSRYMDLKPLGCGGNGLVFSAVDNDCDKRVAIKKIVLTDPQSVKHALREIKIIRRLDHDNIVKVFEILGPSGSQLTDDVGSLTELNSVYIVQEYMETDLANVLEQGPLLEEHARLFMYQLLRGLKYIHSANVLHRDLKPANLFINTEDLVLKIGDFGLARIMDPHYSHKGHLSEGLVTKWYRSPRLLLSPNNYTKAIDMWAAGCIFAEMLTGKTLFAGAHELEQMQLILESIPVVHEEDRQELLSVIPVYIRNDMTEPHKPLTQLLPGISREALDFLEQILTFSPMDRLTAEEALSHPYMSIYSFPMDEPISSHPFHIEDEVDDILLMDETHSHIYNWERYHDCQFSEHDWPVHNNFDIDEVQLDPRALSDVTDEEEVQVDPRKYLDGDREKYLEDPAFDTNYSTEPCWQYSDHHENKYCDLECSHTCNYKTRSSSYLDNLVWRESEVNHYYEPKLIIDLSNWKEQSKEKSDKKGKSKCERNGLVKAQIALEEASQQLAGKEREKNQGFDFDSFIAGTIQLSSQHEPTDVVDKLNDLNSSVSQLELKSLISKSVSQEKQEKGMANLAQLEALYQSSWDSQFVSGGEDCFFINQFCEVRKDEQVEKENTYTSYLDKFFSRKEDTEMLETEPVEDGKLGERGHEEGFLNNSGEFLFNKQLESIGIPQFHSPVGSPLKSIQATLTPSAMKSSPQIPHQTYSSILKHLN
UniProt Q17R31: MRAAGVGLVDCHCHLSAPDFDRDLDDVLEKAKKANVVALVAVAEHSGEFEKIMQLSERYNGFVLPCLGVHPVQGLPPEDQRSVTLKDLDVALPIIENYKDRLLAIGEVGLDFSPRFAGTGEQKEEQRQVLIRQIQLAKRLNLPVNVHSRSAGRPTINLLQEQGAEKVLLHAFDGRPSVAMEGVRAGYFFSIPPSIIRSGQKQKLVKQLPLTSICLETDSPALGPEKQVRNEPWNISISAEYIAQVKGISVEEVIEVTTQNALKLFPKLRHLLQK
UniProt Q5JWR5: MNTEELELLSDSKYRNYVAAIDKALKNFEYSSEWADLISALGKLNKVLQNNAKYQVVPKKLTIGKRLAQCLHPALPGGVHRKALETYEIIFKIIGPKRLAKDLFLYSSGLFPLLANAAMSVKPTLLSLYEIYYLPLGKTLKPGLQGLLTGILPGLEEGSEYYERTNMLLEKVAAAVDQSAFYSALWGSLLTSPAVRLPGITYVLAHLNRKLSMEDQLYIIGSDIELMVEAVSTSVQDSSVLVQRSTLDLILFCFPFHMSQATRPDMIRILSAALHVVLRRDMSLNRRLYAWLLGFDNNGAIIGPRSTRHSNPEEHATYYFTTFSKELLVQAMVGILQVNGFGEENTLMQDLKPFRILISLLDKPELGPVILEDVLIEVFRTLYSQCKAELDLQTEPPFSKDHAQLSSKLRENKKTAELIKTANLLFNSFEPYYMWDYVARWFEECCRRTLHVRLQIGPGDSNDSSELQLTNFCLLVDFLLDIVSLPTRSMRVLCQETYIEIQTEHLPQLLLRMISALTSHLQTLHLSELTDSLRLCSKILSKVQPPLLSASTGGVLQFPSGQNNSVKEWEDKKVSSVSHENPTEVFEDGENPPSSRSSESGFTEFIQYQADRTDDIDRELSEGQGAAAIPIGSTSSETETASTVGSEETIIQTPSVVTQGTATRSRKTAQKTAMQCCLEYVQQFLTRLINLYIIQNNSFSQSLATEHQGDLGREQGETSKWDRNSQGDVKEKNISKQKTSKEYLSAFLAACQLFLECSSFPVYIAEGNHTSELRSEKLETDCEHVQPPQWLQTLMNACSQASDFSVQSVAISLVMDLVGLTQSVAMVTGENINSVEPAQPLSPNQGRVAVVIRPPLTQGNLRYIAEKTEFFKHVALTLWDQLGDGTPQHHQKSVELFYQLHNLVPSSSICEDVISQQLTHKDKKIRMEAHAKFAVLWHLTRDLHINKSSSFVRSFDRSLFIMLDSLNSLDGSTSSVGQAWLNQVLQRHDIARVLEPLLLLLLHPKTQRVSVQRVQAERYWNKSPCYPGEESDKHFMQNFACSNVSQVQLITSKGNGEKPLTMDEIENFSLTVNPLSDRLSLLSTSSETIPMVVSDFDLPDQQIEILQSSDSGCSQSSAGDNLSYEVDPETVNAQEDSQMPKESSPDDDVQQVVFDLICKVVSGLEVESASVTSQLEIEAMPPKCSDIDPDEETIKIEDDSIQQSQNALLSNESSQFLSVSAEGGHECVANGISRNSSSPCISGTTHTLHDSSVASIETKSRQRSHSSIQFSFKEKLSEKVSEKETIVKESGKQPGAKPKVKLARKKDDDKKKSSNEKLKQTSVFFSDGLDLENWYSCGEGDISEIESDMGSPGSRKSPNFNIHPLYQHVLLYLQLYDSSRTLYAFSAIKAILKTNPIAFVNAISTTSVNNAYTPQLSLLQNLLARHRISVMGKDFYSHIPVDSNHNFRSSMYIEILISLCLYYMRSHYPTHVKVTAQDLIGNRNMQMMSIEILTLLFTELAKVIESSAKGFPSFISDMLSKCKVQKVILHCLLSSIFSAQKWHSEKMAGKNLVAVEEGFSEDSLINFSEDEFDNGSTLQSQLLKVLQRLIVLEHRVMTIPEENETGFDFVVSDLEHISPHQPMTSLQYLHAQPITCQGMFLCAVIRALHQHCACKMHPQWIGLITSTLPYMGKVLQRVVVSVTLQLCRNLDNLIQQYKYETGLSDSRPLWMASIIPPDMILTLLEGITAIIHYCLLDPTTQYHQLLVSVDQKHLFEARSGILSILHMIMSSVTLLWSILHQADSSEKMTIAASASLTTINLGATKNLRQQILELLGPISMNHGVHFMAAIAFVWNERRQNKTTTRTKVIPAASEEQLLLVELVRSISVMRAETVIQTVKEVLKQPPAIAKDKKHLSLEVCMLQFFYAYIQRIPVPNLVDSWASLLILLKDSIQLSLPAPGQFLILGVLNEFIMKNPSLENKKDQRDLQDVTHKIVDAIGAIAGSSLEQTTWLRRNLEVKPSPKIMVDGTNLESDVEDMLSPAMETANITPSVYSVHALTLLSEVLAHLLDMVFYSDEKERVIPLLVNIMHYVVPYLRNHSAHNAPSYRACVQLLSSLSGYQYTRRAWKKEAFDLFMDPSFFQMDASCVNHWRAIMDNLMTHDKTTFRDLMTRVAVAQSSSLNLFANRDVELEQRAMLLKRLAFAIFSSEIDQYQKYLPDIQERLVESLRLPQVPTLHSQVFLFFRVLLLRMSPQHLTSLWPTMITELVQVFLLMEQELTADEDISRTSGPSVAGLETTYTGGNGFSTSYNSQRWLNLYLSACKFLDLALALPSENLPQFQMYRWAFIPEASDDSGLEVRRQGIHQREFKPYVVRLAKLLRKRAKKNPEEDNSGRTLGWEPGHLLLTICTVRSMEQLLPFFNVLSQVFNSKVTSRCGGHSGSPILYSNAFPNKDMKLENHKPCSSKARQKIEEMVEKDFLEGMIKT
UniProt Q562F6: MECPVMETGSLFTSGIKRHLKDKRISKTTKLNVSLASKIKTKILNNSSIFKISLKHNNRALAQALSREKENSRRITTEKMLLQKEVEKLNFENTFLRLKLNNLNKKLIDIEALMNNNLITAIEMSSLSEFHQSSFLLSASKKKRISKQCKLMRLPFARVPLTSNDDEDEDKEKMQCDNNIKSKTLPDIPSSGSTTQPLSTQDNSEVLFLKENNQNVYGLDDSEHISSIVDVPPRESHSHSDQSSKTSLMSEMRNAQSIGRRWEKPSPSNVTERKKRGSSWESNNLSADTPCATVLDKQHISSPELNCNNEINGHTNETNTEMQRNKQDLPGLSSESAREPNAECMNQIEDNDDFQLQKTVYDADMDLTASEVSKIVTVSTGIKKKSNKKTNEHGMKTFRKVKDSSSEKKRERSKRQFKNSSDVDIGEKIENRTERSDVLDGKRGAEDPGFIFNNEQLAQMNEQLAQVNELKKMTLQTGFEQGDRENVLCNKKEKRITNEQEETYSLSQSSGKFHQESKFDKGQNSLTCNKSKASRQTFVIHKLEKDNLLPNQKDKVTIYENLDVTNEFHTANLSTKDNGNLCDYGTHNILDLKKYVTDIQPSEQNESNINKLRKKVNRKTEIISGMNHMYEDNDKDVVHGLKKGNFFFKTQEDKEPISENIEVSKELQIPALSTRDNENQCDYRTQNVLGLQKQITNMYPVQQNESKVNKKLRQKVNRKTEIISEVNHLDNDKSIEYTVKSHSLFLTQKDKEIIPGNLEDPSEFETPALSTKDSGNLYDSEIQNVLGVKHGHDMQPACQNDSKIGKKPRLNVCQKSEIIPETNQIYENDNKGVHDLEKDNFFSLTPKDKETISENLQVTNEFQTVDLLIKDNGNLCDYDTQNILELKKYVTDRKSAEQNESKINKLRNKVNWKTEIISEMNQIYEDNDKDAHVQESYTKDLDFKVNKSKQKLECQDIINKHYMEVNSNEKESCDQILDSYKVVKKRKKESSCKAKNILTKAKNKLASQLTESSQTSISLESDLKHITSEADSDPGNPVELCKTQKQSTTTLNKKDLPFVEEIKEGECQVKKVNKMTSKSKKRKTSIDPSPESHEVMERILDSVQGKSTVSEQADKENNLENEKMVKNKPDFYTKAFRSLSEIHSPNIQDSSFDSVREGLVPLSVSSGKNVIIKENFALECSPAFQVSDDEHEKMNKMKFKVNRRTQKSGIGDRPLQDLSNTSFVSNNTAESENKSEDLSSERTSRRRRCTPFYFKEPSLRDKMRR
UniProt Q5JS37: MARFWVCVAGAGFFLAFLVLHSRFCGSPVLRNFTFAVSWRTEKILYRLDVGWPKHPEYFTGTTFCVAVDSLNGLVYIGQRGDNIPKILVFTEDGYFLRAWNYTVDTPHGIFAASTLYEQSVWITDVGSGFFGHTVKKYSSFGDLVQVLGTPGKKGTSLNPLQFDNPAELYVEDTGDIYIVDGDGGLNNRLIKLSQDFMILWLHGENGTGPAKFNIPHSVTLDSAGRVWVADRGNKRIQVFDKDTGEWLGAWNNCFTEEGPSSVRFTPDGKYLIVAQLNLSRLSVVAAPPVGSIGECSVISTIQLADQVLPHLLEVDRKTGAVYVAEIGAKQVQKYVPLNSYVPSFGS
UniProt Q15544, whole entry: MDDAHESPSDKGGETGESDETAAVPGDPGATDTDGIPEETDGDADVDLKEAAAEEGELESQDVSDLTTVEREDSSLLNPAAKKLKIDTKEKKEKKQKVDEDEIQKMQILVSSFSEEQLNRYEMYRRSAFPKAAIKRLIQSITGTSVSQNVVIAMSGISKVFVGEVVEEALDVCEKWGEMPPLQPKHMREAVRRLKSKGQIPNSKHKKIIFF

Compound: Nc1ncnc2c1ncn2[C@@H]1O[C@H](COP(=O)(O)OP(=O)(O)NP(=O)(O)O)[C@@H](O)[C@H]1O [adenylyl imidodiphosphate]
Test: NP40-soluble protein abundance relative to vehicle (solubility fold change) (ratio); higher = more soluble protein in presence of AMP-PNP
Procedure, shortened: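 Crude Jurkat lysate, prepared by Dounce homogenisation, was exposed to eight concentrations from 0.1 to 10 mM for 10 min at room temperature and then 3 min at 37 °C. Solubilisation used 0.8% NP40 with benzonase for 60 min at 4 °C, followed by ultracentrifugation and TMT labelling of the supernatant for LC-MS/MS. After vsn normalisation of intensities, each value is the fold change against the detergent-processed vehicle within each replicate, across three independent experiments.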

Target	NP40-soluble protein abundance (concentration: 1mM)	NP40-soluble protein abundance (concentration: 2mM)	NP40-soluble protein abundance (concentration: 4mM)	NP40-soluble protein abundance (concentration: 6mM)	NP40-soluble protein abundance (concentration: 8mM)	NP40-soluble protein abundance (concentration: 10mM)
QRICH1 (UniProt Q2TAL8)	1.01 ± 0.016	1.01 ± 0.012	0.996 ± 0.036	0.99 ± 0.01	0.972 ± 0.019	0.994 ± 0.028
UniProt Q15596 and related entries	1.02 ± 0.042	1.03 ± 0.048	1.01 ± 0.037	0.984 ± 0.031	0.985 ± 0.011	0.994 ± 0.043
UniProt Q5JSZ5	1.05 ± 0.052	1.09 ± 0.035	1.09 ± 0.04	1.07 ± 0.07	1.07 ± 0.085	1.15 ± 0.059
ATP6AP1 (UniProt Q15904)	0.958 ± 0.041	0.954 ± 0.03	0.966 ± 0.049	0.977 ± 0.043	0.983 ± 0.011	0.982 ± 0.026
UniProt Q16513 and related entries	0.995 ± 0.028	1.07 ± 0.044	1.07 ± 0.093	1 ± 0.065	0.988 ± 0.047	0.984 ± 0.063
UniProt Q15910 and related entries	1.02 ± 0.04	1.08 ± 0.038	1.09 ± 0.038	1.12 ± 0.023	1.12 ± 0.026	1.21 ± 0.03
Q5T5C7 (UniProt P49591)	0.988 ± 0.043	0.922 ± 0.097	0.959 ± 0.025	0.945 ± 0.053	0.988 ± 0.012	0.964 ± 0.043
PMVK (UniProt Q15126)	0.948 ± 0.0098	0.931 ± 0.018	0.973 ± 0.045	1.04 ± 0.07	1.04 ± 0.061	1.02 ± 0.052
UniProt Q5T440	0.976 ± 0.022	0.925 ± 0.039	1 ± 0.04	0.99 ± 0.079	1.03 ± 0.029	1.05 ± 0.078
STXBP2 (UniProt Q15833)	0.956 ± 0.023	0.934 ± 0.013	0.951 ± 0.014	0.946 ± 0.024	0.952 ± 0.04	0.933 ± 0.02
GNPTAB (UniProt Q3T906)	1.04 ± 0.025	1.04 ± 0.016	1.02 ± 0.014	1.01 ± 0.036	1.01 ± 0.04	1.04 ± 0.032
UniProt Q4G148 and related entries	0.9836 ± 0.0086	1.01 ± 0.04	1 ± 0.044	1.02 ± 0.097	1.04 ± 0.058	1.06 ± 0.059
Q5QPA5 and related entries (UniProt Q9NVS2)	1.01 ± 0.091	0.992 ± 0.058	0.963 ± 0.12	0.927 ± 0.15	0.929 ± 0.14	0.939 ± 0.14
COX19 (UniProt Q49B96)	1.04 ± 0.017	1.06 ± 0.066	0.982 ± 0.075	0.96 ± 0.018	1 ± 0.02	0.9233 ± 0.0052
TAF7 (UniProt Q15545)	1.03 ± 0.048	1.06 ± 0.015	1.03 ± 0.036	1.03 ± 0.026	1.04 ± 0.066	1.06 ± 0.057
UniProt Q16698-2|Q16698	1.06 ± 0.085	1.11 ± 0.058	1.19 ± 0.08	1.21 ± 0.014	1.26 ± 0.041	1.25 ± 0.02
UniProt Q16576 and related entries	0.9259 ± 0.0056	0.918 ± 0.05	0.927 ± 0.051	0.909 ± 0.054	0.91 ± 0.034	0.873 ± 0.03
SF3A2 (UniProt Q15428)	0.972 ± 0.023	1.05 ± 0.058	1.02 ± 0.036	1.08 ± 0.02	1.09 ± 0.018	1.11 ± 0.047
UniProt Q2T9J0 and related entries	1.01 ± 0.016	0.995 ± 0.034	0.992 ± 0.025	0.993 ± 0.022	0.995 ± 0.0098	1 ± 0.039
UniProt Q15120 and related entries	0.996 ± 0.09	0.958 ± 0.12	1.03 ± 0.14	1.02 ± 0.085	1.04 ± 0.075	1.06 ± 0.12

Target	NP40-soluble protein abundance (concentration: 1mM)	NP40-soluble protein abundance (concentration: 2mM)	NP40-soluble protein abundance (concentration: 4mM)	NP40-soluble protein abundance (concentration: 6mM)	NP40-soluble protein abundance (concentration: 8mM)	NP40-soluble protein abundance (concentration: 10mM)
UniProt Q3V6T2 and related entries	1.03 ± 0.02	1.04 ± 0.03	1.021 ± 0.0036	0.968 ± 0.028	0.9391 ± 0.0084	0.959 ± 0.011
NSDHL (UniProt Q15738)	0.968 ± 0.04	0.892 ± 0.058	0.93 ± 0.022	0.953 ± 0.045	0.964 ± 0.036	0.923 ± 0.028
UniProt Q5T280	1.01 ± 0.015	1.03 ± 0.015	1.005 ± 0.0046	1.06 ± 0.013	1.05 ± 0.0036	1.134 ± 0.01
HERC1 (UniProt Q15751)	0.931 ± 0.057	0.917 ± 0.076	0.941 ± 0.017	0.901 ± 0.014	0.893 ± 0.029	0.913 ± 0.034
ERCC6L (UniProt Q2NKX8)	0.998 ± 0.022	1.01 ± 0.036	0.993 ± 0.04	0.95 ± 0.032	0.942 ± 0.045	0.949 ± 0.064
AARS2 (UniProt Q5JTZ9)	0.981 ± 0.0018	0.96 ± 0.037	0.983 ± 0.035	0.972 ± 0.018	0.97 ± 0.044	0.957 ± 0.035
QPRT (UniProt Q15274)	0.96 ± 0.021	0.982 ± 0.029	0.978 ± 0.028	1 ± 0.035	1 ± 0.03	1.01 ± 0.05
UniProt Q5JTD0 and related entries	1.018 ± 0.0073	1.03 ± 0.039	1.02 ± 0.027	1.01 ± 0.024	0.998 ± 0.014	1.02 ± 0.054
RABEP1 (UniProt Q15276)	1.03 ± 0.013	1.06 ± 0.044	1.03 ± 0.016	0.997 ± 0.019	0.969 ± 0.013	0.991 ± 0.025
PTGES3 (UniProt Q15185)	1.01 ± 0.056	1.06 ± 0.12	1.01 ± 0.072	1.11 ± 0.083	1.11 ± 0.063	1.11 ± 0.048
UniProt Q16401 and related entries	0.977 ± 0.026	0.93 ± 0.058	0.975 ± 0.013	0.955 ± 0.026	0.992 ± 0.024	0.96 ± 0.019
UniProt Q16659	0.997 ± 0.033	1.02 ± 0.053	0.981 ± 0.026	0.975 ± 0.027	0.9755 ± 0.0082	0.939 ± 0.021
HS1BP3 (UniProt Q53T59)	1.008 ± 0.0059	1.04 ± 0.049	1.04 ± 0.034	1 ± 0.013	1.04 ± 0.018	1.02 ± 0.011
SAMD9 (UniProt Q5K651)	1.01 ± 0.032	0.969 ± 0.061	0.99 ± 0.031	0.951 ± 0.028	0.962 ± 0.012	0.932 ± 0.03
UniProt Q5T0B9	1.02 ± 0.017	1.03 ± 0.037	1.01 ± 0.04	0.999 ± 0.016	0.961 ± 0.028	1.02 ± 0.049
SEC23B (UniProt Q15437)	1.01 ± 0.023	0.95 ± 0.056	1.03 ± 0.011	0.999 ± 0.047	1.05 ± 0.025	0.9923 ± 0.0094
LYRM7 (UniProt Q5U5X0)	0.963 ± 0.026	1 ± 0.037	0.939 ± 0.052	0.894 ± 0.035	0.871 ± 0.027	0.862 ± 0.06
UniProt Q5JSH3 and related entries	1.02 ± 0.011	1.07 ± 0.071	1.03 ± 0.022	0.995 ± 0.027	0.974 ± 0.042	0.984 ± 0.029
UniProt Q17R31 and related entries	1.04 ± 0.011	1.06 ± 0.047	1.09 ± 0.034	1.038 ± 0.0053	1.05 ± 0.021	1.1 ± 0.07
UniProt Q5F1R6 and related entries	1.044 ± 0.0025	1.12 ± 0.041	1.123 ± 0.0067	1.11 ± 0.066	1.09 ± 0.019	1.11 ± 0.035

Target	NP40-soluble protein abundance (concentration: 1mM)	NP40-soluble protein abundance (concentration: 2mM)	NP40-soluble protein abundance (concentration: 4mM)	NP40-soluble protein abundance (concentration: 6mM)	NP40-soluble protein abundance (concentration: 8mM)	NP40-soluble protein abundance (concentration: 10mM)
GFOD2 (UniProt Q3B7J2)	0.984 ± 0.011	0.916 ± 0.068	0.9484 ± 0.0064	0.948 ± 0.017	0.977 ± 0.018	0.921 ± 0.021
UniProt Q16666 and related entries	1.06 ± 0.052	1.11 ± 0.023	1.22 ± 0.069	1.43 ± 0.14	1.49 ± 0.14	1.53 ± 0.19
TAF9 (UniProt Q16594)	1.009 ± 0.0054	1.04 ± 0.02	1.01 ± 0.018	1.01 ± 0.018	1.03 ± 0.016	1.05 ± 0.039
HSD17B12 (UniProt Q53GQ0)	0.942 ± 0.027	0.882 ± 0.069	0.9126 ± 0.0083	0.946 ± 0.048	0.978 ± 0.034	0.921 ± 0.013
UniProt Q5JPI3-2|E9PFZ1 and related entries	1.01 ± 0.058	0.995 ± 0.053	0.994 ± 0.039	0.963 ± 0.051	0.963 ± 0.037	0.957 ± 0.023
Q5TZT0 and related entries (UniProt Q9NSU2)	0.9813 ± 0.0085	0.9854 ± 0.0071	0.9796 ± 0.007	0.968 ± 0.024	0.961 ± 0.028	0.972 ± 0.019
UniProt Q32P28 and related entries	1 ± 0.03	1.02 ± 0.035	1.02 ± 0.012	1.028 ± 0.0022	1.04 ± 0.028	1.08 ± 0.041
VAMP3 (UniProt Q15836)	0.99 ± 0.023	1.01 ± 0.026	1 ± 0.034	1.016 ± 0.0025	1.01 ± 0.018	0.987 ± 0.024
UniProt Q5JWR5 and related entries	0.986 ± 0.038	0.977 ± 0.012	0.937 ± 0.023	0.969 ± 0.035	0.954 ± 0.028	0.928 ± 0.013
UniProt Q15208	1.04 ± 0.035	0.965 ± 0.053	1.01 ± 0.039	0.989 ± 0.033	1.01 ± 0.053	0.961 ± 0.015
UniProt Q562F6 and related entries	1.01 ± 0.025	1.02 ± 0.037	1.01 ± 0.022	1.02 ± 0.047	0.975 ± 0.035	1.01 ± 0.018
MIA3 (UniProt Q5JRA6)	1.03 ± 0.024	1.1 ± 0.054	1.02 ± 0.018	1.01 ± 0.018	0.998 ± 0.0068	0.998 ± 0.029
UniProt Q32MZ4 and related entries	1 ± 0.017	1.07 ± 0.059	0.987 ± 0.02	0.961 ± 0.025	0.9253 ± 0.0066	0.939 ± 0.027
UniProt Q16537 and related entries	1 ± 0.012	0.937 ± 0.024	0.963 ± 0.019	0.946 ± 0.015	0.956 ± 0.036	0.9033 ± 0.0089
TERF2 (UniProt Q15554)	1.046 ± 0.0077	1.1 ± 0.058	1.09 ± 0.051	1.15 ± 0.045	1.14 ± 0.031	1.21 ± 0.046
UniProt Q5JS37 and related entries	0.973 ± 0.021	0.967 ± 0.053	0.963 ± 0.056	1 ± 0.042	1 ± 0.041	0.98 ± 0.076
TAF11 (UniProt Q15544)	1.01 ± 0.002	1.03 ± 0.022	1.06 ± 0.012	1.04 ± 0.045	1.05 ± 0.039	1.05 ± 0.085
BEND3 (UniProt Q5T5X7)	0.967 ± 0.025	0.971 ± 0.028	0.977 ± 0.046	0.941 ± 0.037	0.94 ± 0.046	0.927 ± 0.059
RAB11B (UniProt Q15907)	0.935 ± 0.041	0.853 ± 0.067	0.888 ± 0.026	0.957 ± 0.047	0.97 ± 0.039	0.895 ± 0.02
UBE2S (UniProt Q16763)	1.05 ± 0.029	1.02 ± 0.023	1.05 ± 0.03	0.989 ± 0.025	1.02 ± 0.018	0.989 ± 0.034

3 entries from above, comma-delimited:
Target,NP40-soluble protein abundance (concentration: 1mM),NP40-soluble protein abundance (concentration: 2mM),NP40-soluble protein abundance (concentration: 4mM),NP40-soluble protein abundance (concentration: 6mM),NP40-soluble protein abundance (concentration: 8mM),NP40-soluble protein abundance (concentration: 10mM)
TERF2 (UniProt Q15554),1.046 ± 0.0077,1.1 ± 0.058,1.09 ± 0.051,1.15 ± 0.045,1.14 ± 0.031,1.21 ± 0.046
UniProt Q5JS37 and related entries,0.973 ± 0.021,0.967 ± 0.053,0.963 ± 0.056,1 ± 0.042,1 ± 0.041,0.98 ± 0.076
TAF11 (UniProt Q15544),1.01 ± 0.002,1.03 ± 0.022,1.06 ± 0.012,1.04 ± 0.045,1.05 ± 0.039,1.05 ± 0.085
